In article doi:10.1101/2023.10.17.562760 one finds binding data, which are given here for 2 substances.

Chains of the proteins cited; added tags and fusions are not shown.
UniProt P28738, whole entry: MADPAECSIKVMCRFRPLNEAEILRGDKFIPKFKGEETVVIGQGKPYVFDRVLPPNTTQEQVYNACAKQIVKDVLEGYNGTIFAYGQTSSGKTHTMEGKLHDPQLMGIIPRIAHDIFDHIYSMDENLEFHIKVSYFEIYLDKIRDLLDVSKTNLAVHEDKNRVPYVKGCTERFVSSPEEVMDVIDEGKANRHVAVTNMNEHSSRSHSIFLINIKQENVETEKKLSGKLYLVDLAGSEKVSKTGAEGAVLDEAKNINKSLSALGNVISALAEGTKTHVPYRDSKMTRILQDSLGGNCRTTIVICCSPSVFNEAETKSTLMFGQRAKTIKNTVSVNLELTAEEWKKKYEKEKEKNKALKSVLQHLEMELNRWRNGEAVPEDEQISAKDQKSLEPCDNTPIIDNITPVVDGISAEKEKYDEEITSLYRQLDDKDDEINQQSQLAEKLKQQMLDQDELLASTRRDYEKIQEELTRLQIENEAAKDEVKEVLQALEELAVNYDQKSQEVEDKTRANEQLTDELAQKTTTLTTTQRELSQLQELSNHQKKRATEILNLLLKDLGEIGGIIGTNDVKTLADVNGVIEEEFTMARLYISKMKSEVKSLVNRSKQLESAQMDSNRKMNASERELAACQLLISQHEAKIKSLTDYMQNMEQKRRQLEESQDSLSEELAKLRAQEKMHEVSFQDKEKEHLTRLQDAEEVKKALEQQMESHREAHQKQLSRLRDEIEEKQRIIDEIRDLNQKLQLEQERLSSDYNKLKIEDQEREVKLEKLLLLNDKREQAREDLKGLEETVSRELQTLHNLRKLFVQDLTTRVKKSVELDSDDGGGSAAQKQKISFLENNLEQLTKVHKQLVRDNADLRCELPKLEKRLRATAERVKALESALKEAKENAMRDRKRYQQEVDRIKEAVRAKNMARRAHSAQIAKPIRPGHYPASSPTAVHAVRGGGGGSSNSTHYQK
UniProt O88447, whole entry: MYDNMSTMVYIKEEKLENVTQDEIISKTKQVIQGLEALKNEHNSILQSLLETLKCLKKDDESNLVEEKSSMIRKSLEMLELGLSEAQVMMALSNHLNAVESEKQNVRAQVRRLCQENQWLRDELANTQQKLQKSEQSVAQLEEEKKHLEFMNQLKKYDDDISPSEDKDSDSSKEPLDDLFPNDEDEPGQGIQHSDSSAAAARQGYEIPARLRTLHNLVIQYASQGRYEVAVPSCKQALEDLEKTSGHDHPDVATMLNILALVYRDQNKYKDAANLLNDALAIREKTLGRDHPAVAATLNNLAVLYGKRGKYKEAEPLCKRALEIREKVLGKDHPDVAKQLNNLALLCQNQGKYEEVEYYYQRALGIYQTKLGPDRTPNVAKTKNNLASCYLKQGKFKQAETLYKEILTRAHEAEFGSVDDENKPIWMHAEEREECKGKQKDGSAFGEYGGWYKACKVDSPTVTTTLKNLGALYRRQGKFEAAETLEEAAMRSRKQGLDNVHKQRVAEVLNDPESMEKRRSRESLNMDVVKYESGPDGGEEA

The target of the experiment is His-Kif5C (kinesin heavy chain, KHC), wild type, of Kinesin^WT (UniProt P28738). Briefly: SEC. (Size exclusion chromatography separates by hydrodynamic size, large species first.)

These are yes or no findings as the source states them, for the method shown. Some binding calls cover weakened binding; strength is not graded here.

Take “His-Kif5C (kinesin heavy chain, KHC), wild type, of Kinesin^WT (from UniProt P28738 1-956)”: the binding entry was “binds”.
As for “KLC1 isoform A (kinesin light chain, KLC) (from UniProt O88447 1-541)”, the binding entry was “binds”.
